Assay results taken from PubChem BioAssay AID1347426 (Functional Genomics Laboratory (NCATS/FGL), 2020).
In all, about 31,000 sequences went through this assay and about 1,400 (4.5%) were called active.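 How the source made its calls: active means median seed-adjusted z-score above 1 or below -1; inactive means the rest.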 The list shows a part of the results.

Test: Novel Modifiers of Survival Motor Neuron (SMN) Protein: Gene Identification via Genome-wide siRNA Screen;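 further: luminescence tracks full-length SMN protein made from the SMN2 reporter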
Settings: HEK293T SMN2-luciferase reporter, siRNA knockdown, 72 h; actives lie on both sides
How it was run: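 siRNA screen, 10418 genes ×3 siRNAs; 1 pmol/well, lipid reverse transfection into HEK293T SMN2-luc reporter line. 72 h, 37 °C, 5% CO2; ONE-Glo readout. Data: neg-ctrl normalized, log10, MAD; hit = MAD >1.0 or < -1.0.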

Row | Sequence | median seed-adjusted z-score
1 | GGCACGAAAUGAGUCCUCATT against MSLN | inactive: -0.344
2 | AGGCAGAUGUCGUCCCAAATT against PPIF | inactive: 0.0719
3 | CAGUGCUGUUUGGACAAGATT against IKBKE | inactive: 0.122
4 | GGAACUAACUAUGUCGACATT against PCDHB2 | inactive: 0
5 | GAACCCAAGAAAUCAAUUATT against ZNF197 | inactive: -0.219
6 | GCAUCGCUUUAAACUCGUATT against IFNGR1 | inactive: -0.279
7 | GAACUUAACCAGUGCAGAATT against IGF2BP2 | inactive: 0.281
8 | GGAUUUAUCAGAACCUUUATT against SLC25A15 | inactive: -0.0116
9 | GGAAUAUUCUGACUAUAAUTT against UGT2B17 | inactive: -0.0203
10 | CAGCAUGCCUUGUACAGCATT against ANKIB1 | inactive: -0.00367
11 | GUACUUAGAGAGGCUCAAATT against DCI | inactive: 0.469
12 | GCACUUACGUGAGUAAAUATT against LEFTY2 | inactive: -0.33
13 | GCUGUGCUAUGGGAGUUAATT against ADH1A | inactive: 0.624
14 | CCCUAUAUCUGCAAAGUGUTT against ZIC3 | inactive: -0.183
15 | CUCUUAUCCUUAGAUCCAATT against BBS10 | inactive: 0.298
16 | CAAUCAGCCGGAAAGAGAATT against PACSIN3 | inactive: -0.0145
17 | GGCGAAGUGUCCGACAGAATT against ZNF747 | inactive: 0.379
18 | GAUCAGUAGCCUUCAGAAATT against RSU1 | inactive: 0.176
19 | GGAAGUUUGUUGAAGGUCUTT against MDH1 | inactive: -0.154
20 | CCUAUUACGUCAUCGAAUATT against PTPRS | inactive: -0.433
21 | CAGACAUUGGAGUGGAUUATT against BBOX1 | inactive: 0.152
22 | CAACUGUGAUUAAUGAUCATT against PDE3A | inactive: 0.291
23 | CAACGGCUACUGCAACGAATT against TNFAIP3 | inactive: 0.11
24 | CCGCCUUUUUACUAGAGAATT against SCN3A | inactive: -0.0556
25 | ACAGAUACCUUUUCAAGCATT against DMD | inactive: -0.626
26 | AGACCUUUCUGUCCACCAATT against ANGPT4 | inactive: 0
27 | GGGACACUAUAUUCCAGAATT against PRKCD | inactive: -0.236

Row | Sequence | median seed-adjusted z-score
28 | CCUCGAUCCUUAGUAAACATT against ZNF486 | inactive: 0.324
29 | AUAUAACUGCUGAUCUAGATT against SPCS3 | inactive: 0.417
30 | GAACUGUCAGGAUCAAGUATT against PDZD2 | inactive: -0.00167
31 | UCAGGACUCUGGACAUUCATT against ADAM33 | inactive: -0.038
32 | CCAACUUGCCCAAUCACAATT against GLI1 | inactive: -0.347
33 | GCAUAAGACGUGUGAUUGATT against TRMT5 | inactive: 0
34 | CGUUCGCACAUUCCUUAUATT against KIF6 | inactive: -0.0396
35 | GAUCUUCUCAACUUACUGATT against ZNF266 | inactive: 0.426
36 | GGGUGAAAACGCAGCAGAATT against GH2 | inactive: 0.374
37 | UCAAUUAUGUGGCCAGGAATT against NUDT2 | inactive: 0.891
38 | GACUAGCCGAUGACCUCAATT against MKL1 | inactive: -0.138
39 | GCUGCGUAUGAAUCAGAUATT against DIS3L2 | inactive: -0.265
40 | GGCACAACAAAACUCGAAATT against SERPINB5 | inactive: -0.0181
41 | GCAUAUCCCACUCCACUAATT against CGA | inactive: 0.0904
42 | GUUGUUCCUUUGUAUCCAATT against DHX32 | inactive: -0.12
43 | GGAAGAUGCACUGACUAGATT against DNAJC1 | inactive: 0.134
44 | CGAUCUUUCCGGUCUGAUATT against DAB2IP | inactive: 0.505
45 | CAGCUCAACGAGUUGGAGATT against OTP | inactive: 0.00717
46 | CUAUGGACAUGUCAAUUGUTT against CCNA2 | inactive: 0.136
47 | GGAUGAGCAGUACCAGGCATT against PYCARD | inactive: 0.117
48 | GCUCUAAUCUUAGUAAACATT against ZIM2 | inactive: -0.565
49 | GAAAAACGAUGUAAGCAAUTT against ADH1A | inactive: 0.624
50 | CAGACGACACUGUCAAAAATT against CES1 | inactive: -0.536
51 | GGUCACAUCUUAUAGGGCATT against ZNF449 | inactive: 0.178
52 | GGCUUAGGAUGGAGACCUATT against TGDS | inactive: -0.196
53 | GAACAUCAGAAGUCACAGATT against TRDN | inactive: 0.195
54 | GAAGAUCAAUGGUAUGGUUTT against NCK1 | inactive: -0.0795

Looked up one by one from the entries so far, three records:
Row | Sequence | median seed-adjusted z-score
24 | CCGCCUUUUUACUAGAGAATT against SCN3A | inactive: -0.0556
5 | GAACCCAAGAAAUCAAUUATT against ZNF197 | inactive: -0.219
23 | CAACGGCUACUGCAACGAATT against TNFAIP3 | inactive: 0.11
